Laboratory results as given in PubChem BioAssay AID651789 (National Center for Advancing Translational Sciences (NCATS), 2012).
Inconclusive means that the source gave no clear call. Such entries were picked first, then a sample of the others. A potency beside an inconclusive call is a rough fit, not a confirmed value. Activity calls are given as the source filed them. Calls follow the shape of the dose curve; as a rule, active = well fitted inhibition curve with a large enough effect; inconclusive = small, poorly fitted or top-dose-only effect; inactive = no such curve, though single readings can be large or run the other way.

Assay: Acumen qHTS Assay for Inhibitors of the mTORC1 Signaling Pathway in WT MEF Cells: Hit Validation; also: nearly all actives have a fitted effect of over 60% in size;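 as to activity change, negative = inhibition: phospho-rpS6 Ser235/236 immunofluorescence normalised to propidium iodide cell stain; percent of cells above a cutoff set by 7.5 nM rapamycin treated wells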
Details: Acumen imaging; series mostly up to 37.3 µM; activity change, negative = inhibition: at the top concentration
Outline: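 Read-out is immunofluorescent phospho-rpS6 (Ser235/236) normalised to PI-stained cell number, reported as % active cells using a 7.5 nM rapamycin threshold. Cells: WT or Tsc2-/-, p53-/- MEFs, compound-exposed 24 h at 37C; PI count also tracks viability.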
Potency is read from the fitted curve at half-maximal effect.

SMILES	activity change, negative = inhibition	Potency
O=C(NCCN1CCN(c2cccc(Cl)c2)CC1)Nc1ccccc1C(F)(F)F	inactive: 59.5%	–
Cc1cccc(N(C)S(=O)(=O)c2ccc(-c3cc(C)no3)s2)c1	–	inconclusive: 0.585 µM [inhibitor, full curve, poor fit]
COc1cc2cc(CNc3ccc(C)cc3)c(=O)n(CC(=O)Nc3ccc(F)cc3F)c2cc1OC	–	inconclusive: 2.61 µM [inhibitor, full curve]
CCOc1cc(CNc2ccc(O)cc2)ccc1OCc1ccc(Cl)cc1	–	inconclusive: 2.93 µM [inhibitor, full curve]
CCOc1ccc(CCNCc2c(C(=O)O)n(Cc3ccc(C)cc3)c3cc(OC)ccc23)cc1	inactive: -1.53%	–
O=C(Cn1c(=O)c2ccccc2n(CC(=O)Nc2ccc(Cl)cc2)c1=O)NCCc1ccccc1	–	active: 14.7 µM
O=C(NCCc1nc2ccccc2n1Cc1ccc(Cl)cc1Cl)c1ccco1	inactive: -12.8%	–
O=S(=O)(c1ccccc1)n1nc(-c2ccc(Cl)cc2)nc1NCc1ccccc1	inactive: -20.8%	–
CC(=O)C1=C(c2ccc(Cl)c(Cl)c2)N(C(C)=O)n2c(C)nnc2S1	–	inconclusive: 26.1 µM [inhibitor, single point]
COc1cccc(-c2oc3ccc(C)cc3c(=O)c2O)c1	–	inconclusive: 11.7 µM [inhibitor, partial curve, poor fit]
Cc1cc(C)cc(OCC(=O)Nc2cccc(-c3nc4ccccc4[nH]3)c2)c1	–	inconclusive: 0.0465 µM [inhibitor, full curve, poor fit]
COc1ccc(CNC(=O)c2cccc(N3CCCS3(=O)=O)c2)cc1OC	–	inconclusive: 4.65 µM [inhibitor, full curve]
Cc1c(C(=O)OCCOc2ccccc2)[nH]c2c1C(=O)CC(c1ccccc1)C2 (configuration not stated)	–	active: 0.0656 µM
CCCSc1oc(-c2ccco2)nc1S(=O)(=O)c1ccc(Br)cc1	inactive: 4.58%	–
COC(=O)CN1C(=O)C(C)(C)c2cc(S(=O)(=O)Nc3ccc(Br)cc3F)ccc21	–	inconclusive: 3.29 µM [inhibitor, full curve]
COc1ccc(-c2nc(S(=O)(=O)c3ccc(Cl)cc3)c(N3CCCCCC3)o2)cc1	inactive: -10.6%	–

SMILES	activity change, negative = inhibition	Potency
CCCCOc1ccc(Cn2c(=O)sc3ccccc32)cc1	inactive: 14.4%	–
CC(=O)Nc1ccc2nc(-c3cc(C)ccc3C)[nH]c2c1	–	inconclusive: 6.56 µM [inhibitor, partial curve]
CC(C)CCNC(=O)C(=O)Nc1c2c(nn1-c1ccc(Cl)cc1)CSC2	–	inconclusive: 3.29 µM [inhibitor, full curve, poor fit]
COc1ccc(S(=O)(=O)NCCc2sc3nc(-c4ccc(C)cc4)nn3c2C)cc1F	inactive: -14%	–
CCOc1ccc(NC(=O)CN2C(=O)C(c3ccc(Cl)cc3)=NC2(C)C)cc1	inactive: 39%	–
Oc1ccc(NCc2ccc(OCc3ccccc3Cl)cc2)cc1	–	inconclusive: 1.65 µM [inhibitor, full curve]
CCOC(=O)N1CCN(Cc2nc3cc(NC(=O)c4cccc(C)c4)ccc3n2C(C)C)CC1	–	inconclusive: 0.233 µM [inhibitor, full curve]
CCCc1oc2ccc(NS(=O)(=O)c3ccc(OCC)cc3)cc2c1C(=O)OCC	–	inconclusive: 4.14 µM [inhibitor, partial curve, poor fit]
O=C(c1ccc(CS(=O)c2ccccc2Cl)o1)N1CCN(c2cccc(Cl)c2)CC1 (configuration not stated)	–	inconclusive: 0.369 µM [inhibitor, full curve]
CC(C(=O)NCc1cccc(Br)c1)n1ncn2cccc2c1=O (configuration not stated)	inactive: 4.58%	–
COc1ccc2nc(NC(=O)c3nc(S(=O)(=O)Cc4ccccc4F)ncc3Cl)sc2c1	–	active: 13.1 µM
Cc1ccccc1C(=O)N1CCN(CCc2ccccn2)CC1	inactive: 3.82%	–
COc1ccc(C2Sc3ccccc3NC3=C2C(=O)c2ccccc23)c(OC)c1OC (configuration not stated)	–	inconclusive: 3.29 µM [inhibitor, full curve]
Oc1ccc(NCc2ccccc2OCc2ccccc2Cl)cc1	–	inconclusive: 18.5 µM [inhibitor, single point]
Cc1cccc(N2CCN(CCNC(=O)Nc3ccc(Cl)cc3)CC2)c1C	–	inconclusive: 23.3 µM [inhibitor, single point]
COc1ccc(CCN2C(=O)c3[nH]nc(-c4ccccc4O)c3C2c2ccc(OC)c(OC)c2)cc1 (configuration not stated)	–	inconclusive: 10.4 µM [inhibitor, single point]

Random excerpt: 2 entries already listed
SMILES	activity change, negative = inhibition	Potency
Cc1ccccc1C(=O)N1CCN(CCc2ccccn2)CC1	inactive: 3.82%	–
CC(C(=O)NCc1cccc(Br)c1)n1ncn2cccc2c1=O (configuration not stated)	inactive: 4.58%	–
